Data taken from patent US20020164716A1.
No constants are given. Whether binding was seen depends on the method and setting. For some assays here: Binding can be weak; no strength is given.

Assays:
[1] = target: region of the IL-1 receptor known to be critical for signalling (IL-1R477-527); test: yeast interaction trap, panel of baits
[2] = target: cytoplasmic domain of the IL-1 receptor; test: yeast interaction trap, panel of baits

B1: TNF-R1-DD ligand protein encoded by clone 1TU (ligand, not shown: large carriers)
chain: SLKANIPEVEAVLNTDRSLVCDGKRGLLTRLLQVMKKEPAESSFRFWQARAVESFLRGTTSYADQMFLLKRGLLEHILYCIVDSECKSRDVLQSYFDLLGELMKFNVDAFKRFNKYINTDAKFQVFLKQINSSLVDSNMLVRCVTLSLDRFENQVDMKVAEVLSECRLLAYISQVPTQMSFLFRLINIIHVQTLTQENVSCLNTSLVILMLARRKERLPLYLRLLQRMEHSKKYPGFLLNNFHNLLRFWQQHYLHKDKDSTCLENSSCISFSYWKETVSILLNPDRQSPSALVSYIEEPYMDIDRDFTEE
binding [1]: binds

B2: TNF-R1-DD ligand protein encoded by clone 3DD (ligand, not shown: large carriers)
chain: EVQDLFEAQGNDRLKLLVLYSGEDDELLQRAAAGGLAMLTSMRPTLCSRIPQVTTHWLEILQALLLSSNQELQHRGAVVVLNMVEASREIASTLMESEMMEILSVLAKGDHSPVTRAAAACLDKAVEYGLIQPNQDGE
binding [2]: no binding
